Experimental data as given in article doi:10.1101/2020.09.30.318253.
No constants are given. Whether binding was seen depends on the method and setting. In cells and extracts the contact can be indirect. A yes stands for co-enrichment or nearness to the bait. Other partners may have been found. For some assays here: A no says only that the protein was not detected with the bait. Tags and fused reporters may be left off the sequences shown.

Tests used:
[1] = molecular target: T1, GSRhino-TAP-tagged DET1 (DE-ETIOLATED1) (Arabidopsis) (UniProt P48732); assay: affinity purification with mass spectrometry
T1 sequence: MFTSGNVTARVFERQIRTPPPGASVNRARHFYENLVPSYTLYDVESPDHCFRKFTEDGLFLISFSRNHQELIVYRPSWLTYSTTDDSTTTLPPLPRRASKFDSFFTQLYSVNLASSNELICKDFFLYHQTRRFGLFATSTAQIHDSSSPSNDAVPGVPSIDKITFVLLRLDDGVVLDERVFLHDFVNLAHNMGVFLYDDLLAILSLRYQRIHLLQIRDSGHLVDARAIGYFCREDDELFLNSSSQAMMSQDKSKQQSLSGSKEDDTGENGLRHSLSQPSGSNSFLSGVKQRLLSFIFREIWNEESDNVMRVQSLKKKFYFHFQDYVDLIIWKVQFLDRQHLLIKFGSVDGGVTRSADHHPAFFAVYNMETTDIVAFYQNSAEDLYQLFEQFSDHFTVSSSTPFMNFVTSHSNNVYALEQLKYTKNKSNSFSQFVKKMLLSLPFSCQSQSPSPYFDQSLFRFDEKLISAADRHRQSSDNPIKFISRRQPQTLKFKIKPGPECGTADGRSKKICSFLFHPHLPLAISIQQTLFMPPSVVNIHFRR

[2] = molecular target: T2, GSRhino-TAP-tagged COP1 (Arabidopsis) (UniProt P43254); assay: affinity purification with mass spectrometry
T2 sequence: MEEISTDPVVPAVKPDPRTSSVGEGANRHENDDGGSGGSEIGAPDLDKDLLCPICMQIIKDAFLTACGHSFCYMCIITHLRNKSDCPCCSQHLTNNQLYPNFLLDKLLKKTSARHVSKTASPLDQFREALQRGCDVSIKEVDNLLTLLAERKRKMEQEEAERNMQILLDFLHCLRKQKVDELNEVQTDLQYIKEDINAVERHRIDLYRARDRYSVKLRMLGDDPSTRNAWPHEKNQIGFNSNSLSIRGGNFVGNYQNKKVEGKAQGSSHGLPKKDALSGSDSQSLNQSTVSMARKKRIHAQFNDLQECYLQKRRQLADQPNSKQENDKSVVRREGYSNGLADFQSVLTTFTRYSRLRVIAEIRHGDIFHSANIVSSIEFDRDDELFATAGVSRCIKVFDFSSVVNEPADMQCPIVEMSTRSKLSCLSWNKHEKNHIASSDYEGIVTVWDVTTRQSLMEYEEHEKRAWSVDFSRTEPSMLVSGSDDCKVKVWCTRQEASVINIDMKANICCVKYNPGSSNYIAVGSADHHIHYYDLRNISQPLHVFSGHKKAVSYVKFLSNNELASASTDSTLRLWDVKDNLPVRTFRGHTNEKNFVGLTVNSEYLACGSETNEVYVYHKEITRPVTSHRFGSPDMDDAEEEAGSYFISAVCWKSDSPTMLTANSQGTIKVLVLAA

B1: CSN4 (signalosome subunit 4) (protein, UniProt Q8L5U0 1-397)
chain: MDEALTNASAIGDQRQKIEQYKLILSSVLSSNDLLQAQRFIDHILSDDVPLVVSRQLLQSFAQELGRLEPETQKEIAQFTLTQIQPRVVSFEEQALVIREKLAGLYESEQEWSKAAQMLSGIDLDSGMRAVDDNFKLSKCIQIARLYLEDDDAVNAEAFINKASFLVSNSQNEVLNLQYKVCYARILDMKRKFLEAALRYYGISQIEQRQIGDEEIDENALEQALSAAVTCTILAGAGPQRSRVLATLYKDERCSKLKIYPILQKVYLERILRRPEIDAFSEELRPHQKASLPDKSTVLDRAMIEHNLLSASKLYTNIRFDELGTLLAIDPRKAEKIAANMIGQDRMRGSIDQEEAVIHFEDDVEELQQWDQQISGLCQALNDILDGMAKKGMSVPV
How did the binding [1] turn out when B1 was run?
The binding was “binds”.

And the binding [2]?
Its binding is “no binding”.
